Source: US20110223612A1
These are yes or no findings as the source states them, for the method shown. Some entries that bind do so weakly or less than the wild type.

Target: T1, EpCAM protein (960-EP-050 from RD Systems) (UniProt P16422)
T1 sequence (looked up): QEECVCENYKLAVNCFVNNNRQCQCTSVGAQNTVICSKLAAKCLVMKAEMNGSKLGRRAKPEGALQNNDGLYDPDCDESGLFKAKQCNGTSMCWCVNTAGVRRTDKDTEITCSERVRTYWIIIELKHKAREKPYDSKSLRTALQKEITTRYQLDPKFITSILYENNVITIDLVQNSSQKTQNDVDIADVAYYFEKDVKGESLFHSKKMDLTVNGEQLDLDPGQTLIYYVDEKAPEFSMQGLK
Test: GMR sensor, EGFR captured by EpCAM, detected with anti-EGFR antibody-MNP

EGFR protein (from UniProt P00533 25-645) (receptor)
binding: binds
